Source: the supplement of paper PMC10849652
The list shows a part of the results.

Protein sequences, listed by entry. Tags and fused reporters are not part of them. Lines headed by an entry give the natural chain unless they say otherwise; changes in a name come on top.
UniProt Q9H5J4: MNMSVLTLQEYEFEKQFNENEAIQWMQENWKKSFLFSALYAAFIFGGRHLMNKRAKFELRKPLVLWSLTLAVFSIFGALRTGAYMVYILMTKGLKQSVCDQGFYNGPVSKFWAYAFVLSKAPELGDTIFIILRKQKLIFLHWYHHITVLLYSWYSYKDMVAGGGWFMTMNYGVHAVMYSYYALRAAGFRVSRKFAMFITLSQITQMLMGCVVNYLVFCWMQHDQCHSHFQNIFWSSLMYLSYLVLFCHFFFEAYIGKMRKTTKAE
UniProt Q92556, whole entry, looked up: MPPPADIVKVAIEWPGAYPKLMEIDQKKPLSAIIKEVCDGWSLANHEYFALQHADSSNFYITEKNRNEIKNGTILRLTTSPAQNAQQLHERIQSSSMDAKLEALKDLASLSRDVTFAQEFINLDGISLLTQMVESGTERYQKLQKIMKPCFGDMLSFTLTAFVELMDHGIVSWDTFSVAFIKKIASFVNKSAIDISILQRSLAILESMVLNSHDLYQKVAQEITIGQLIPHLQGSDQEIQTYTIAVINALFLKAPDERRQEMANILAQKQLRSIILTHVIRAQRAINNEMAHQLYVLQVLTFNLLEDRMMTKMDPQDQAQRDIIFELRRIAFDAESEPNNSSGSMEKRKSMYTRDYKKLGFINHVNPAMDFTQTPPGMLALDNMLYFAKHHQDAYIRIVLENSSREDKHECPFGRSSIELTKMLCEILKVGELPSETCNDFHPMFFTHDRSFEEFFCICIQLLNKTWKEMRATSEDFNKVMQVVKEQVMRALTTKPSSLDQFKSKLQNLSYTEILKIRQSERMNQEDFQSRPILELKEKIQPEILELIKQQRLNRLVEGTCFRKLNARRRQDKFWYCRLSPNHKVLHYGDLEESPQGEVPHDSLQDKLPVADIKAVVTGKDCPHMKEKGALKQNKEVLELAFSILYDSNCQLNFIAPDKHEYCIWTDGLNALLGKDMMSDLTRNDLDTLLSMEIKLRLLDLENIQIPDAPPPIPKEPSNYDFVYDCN
UniProt Q9NRA8: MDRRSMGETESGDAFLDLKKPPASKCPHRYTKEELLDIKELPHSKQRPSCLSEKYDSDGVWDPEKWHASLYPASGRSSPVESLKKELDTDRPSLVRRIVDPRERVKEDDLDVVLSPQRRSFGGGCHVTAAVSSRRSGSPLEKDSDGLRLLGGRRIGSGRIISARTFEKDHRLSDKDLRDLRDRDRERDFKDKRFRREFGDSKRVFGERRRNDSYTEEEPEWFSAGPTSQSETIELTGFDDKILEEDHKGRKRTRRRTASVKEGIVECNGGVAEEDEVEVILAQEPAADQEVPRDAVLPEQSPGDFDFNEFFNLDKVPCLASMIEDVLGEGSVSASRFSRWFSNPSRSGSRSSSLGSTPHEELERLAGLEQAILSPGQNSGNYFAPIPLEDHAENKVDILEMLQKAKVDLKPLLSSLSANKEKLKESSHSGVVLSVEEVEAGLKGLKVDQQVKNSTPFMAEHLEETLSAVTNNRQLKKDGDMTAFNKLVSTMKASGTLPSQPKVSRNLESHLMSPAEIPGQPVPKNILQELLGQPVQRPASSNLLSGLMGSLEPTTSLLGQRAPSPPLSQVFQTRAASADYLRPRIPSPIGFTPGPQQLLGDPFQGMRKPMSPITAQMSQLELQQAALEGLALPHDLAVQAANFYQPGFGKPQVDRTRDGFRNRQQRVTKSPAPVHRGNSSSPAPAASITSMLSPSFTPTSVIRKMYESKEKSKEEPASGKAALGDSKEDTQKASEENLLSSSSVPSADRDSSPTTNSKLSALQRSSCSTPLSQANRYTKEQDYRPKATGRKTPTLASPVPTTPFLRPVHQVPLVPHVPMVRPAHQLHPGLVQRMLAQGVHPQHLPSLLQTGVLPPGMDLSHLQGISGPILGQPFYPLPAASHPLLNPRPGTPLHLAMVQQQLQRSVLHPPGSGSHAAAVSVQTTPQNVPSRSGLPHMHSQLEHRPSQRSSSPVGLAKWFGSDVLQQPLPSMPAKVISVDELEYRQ
UniProt O43768: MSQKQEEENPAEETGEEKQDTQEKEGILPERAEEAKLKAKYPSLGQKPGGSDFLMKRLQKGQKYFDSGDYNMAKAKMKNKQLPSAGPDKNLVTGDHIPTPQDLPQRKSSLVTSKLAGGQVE
UniProt O75071: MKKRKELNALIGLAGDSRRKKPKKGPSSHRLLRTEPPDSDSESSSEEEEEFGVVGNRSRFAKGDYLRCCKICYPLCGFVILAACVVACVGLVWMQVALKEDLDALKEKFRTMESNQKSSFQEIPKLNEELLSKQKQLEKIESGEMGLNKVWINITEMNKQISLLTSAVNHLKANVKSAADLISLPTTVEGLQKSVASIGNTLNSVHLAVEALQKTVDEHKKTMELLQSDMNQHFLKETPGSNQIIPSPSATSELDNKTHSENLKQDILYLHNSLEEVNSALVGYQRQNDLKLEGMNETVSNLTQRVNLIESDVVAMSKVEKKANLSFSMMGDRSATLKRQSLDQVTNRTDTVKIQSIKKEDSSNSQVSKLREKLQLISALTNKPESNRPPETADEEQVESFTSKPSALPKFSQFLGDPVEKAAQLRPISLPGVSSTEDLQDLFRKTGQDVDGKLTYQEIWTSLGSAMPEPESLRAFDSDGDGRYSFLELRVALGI
UniProt P68104, whole entry, looked up: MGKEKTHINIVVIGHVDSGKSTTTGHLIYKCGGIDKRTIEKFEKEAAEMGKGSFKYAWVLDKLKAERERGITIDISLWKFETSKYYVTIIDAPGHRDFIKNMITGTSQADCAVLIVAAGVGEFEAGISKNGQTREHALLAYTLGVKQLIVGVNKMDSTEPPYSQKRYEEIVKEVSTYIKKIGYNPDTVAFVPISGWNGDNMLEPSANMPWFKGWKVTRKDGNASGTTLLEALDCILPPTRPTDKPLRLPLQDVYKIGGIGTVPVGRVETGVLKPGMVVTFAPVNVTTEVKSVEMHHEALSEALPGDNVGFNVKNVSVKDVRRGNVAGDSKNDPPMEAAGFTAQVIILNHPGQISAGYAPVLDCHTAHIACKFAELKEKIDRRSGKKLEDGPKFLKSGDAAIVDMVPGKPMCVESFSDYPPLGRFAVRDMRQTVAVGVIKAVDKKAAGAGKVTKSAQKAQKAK
UniProt Q9H9B1: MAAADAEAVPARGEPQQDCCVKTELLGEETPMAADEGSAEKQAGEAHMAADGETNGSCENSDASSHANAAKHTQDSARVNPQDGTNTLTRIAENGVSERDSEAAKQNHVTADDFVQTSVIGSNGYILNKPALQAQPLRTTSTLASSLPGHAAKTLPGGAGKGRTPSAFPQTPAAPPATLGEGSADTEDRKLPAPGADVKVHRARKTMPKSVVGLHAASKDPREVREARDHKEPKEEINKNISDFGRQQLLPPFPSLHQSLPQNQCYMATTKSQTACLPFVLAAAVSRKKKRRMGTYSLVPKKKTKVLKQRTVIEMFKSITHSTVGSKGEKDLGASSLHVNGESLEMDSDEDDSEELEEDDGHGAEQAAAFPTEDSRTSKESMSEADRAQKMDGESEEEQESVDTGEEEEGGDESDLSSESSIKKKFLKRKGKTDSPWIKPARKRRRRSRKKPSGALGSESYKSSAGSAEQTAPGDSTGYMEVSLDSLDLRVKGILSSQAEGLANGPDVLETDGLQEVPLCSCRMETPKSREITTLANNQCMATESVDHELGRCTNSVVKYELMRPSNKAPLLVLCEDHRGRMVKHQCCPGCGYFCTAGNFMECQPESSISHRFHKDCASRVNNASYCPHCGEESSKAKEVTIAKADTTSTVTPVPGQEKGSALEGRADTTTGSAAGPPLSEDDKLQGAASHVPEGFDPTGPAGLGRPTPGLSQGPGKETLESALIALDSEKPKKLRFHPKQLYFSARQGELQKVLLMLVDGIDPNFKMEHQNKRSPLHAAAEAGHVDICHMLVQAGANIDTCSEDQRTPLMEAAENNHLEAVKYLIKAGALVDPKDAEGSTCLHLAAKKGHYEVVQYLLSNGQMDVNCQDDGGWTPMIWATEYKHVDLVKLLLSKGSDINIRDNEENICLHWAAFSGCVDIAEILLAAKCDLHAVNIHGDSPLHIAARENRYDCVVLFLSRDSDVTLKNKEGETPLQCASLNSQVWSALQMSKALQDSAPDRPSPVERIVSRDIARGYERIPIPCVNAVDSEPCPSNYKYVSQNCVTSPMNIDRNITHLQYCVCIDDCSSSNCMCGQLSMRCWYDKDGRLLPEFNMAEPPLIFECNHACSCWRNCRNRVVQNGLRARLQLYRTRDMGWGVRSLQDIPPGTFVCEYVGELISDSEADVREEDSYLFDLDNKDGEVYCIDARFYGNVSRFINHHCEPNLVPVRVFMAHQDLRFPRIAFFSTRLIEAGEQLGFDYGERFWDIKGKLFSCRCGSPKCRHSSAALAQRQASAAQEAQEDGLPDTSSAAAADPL
UniProt O43432, whole entry, looked up: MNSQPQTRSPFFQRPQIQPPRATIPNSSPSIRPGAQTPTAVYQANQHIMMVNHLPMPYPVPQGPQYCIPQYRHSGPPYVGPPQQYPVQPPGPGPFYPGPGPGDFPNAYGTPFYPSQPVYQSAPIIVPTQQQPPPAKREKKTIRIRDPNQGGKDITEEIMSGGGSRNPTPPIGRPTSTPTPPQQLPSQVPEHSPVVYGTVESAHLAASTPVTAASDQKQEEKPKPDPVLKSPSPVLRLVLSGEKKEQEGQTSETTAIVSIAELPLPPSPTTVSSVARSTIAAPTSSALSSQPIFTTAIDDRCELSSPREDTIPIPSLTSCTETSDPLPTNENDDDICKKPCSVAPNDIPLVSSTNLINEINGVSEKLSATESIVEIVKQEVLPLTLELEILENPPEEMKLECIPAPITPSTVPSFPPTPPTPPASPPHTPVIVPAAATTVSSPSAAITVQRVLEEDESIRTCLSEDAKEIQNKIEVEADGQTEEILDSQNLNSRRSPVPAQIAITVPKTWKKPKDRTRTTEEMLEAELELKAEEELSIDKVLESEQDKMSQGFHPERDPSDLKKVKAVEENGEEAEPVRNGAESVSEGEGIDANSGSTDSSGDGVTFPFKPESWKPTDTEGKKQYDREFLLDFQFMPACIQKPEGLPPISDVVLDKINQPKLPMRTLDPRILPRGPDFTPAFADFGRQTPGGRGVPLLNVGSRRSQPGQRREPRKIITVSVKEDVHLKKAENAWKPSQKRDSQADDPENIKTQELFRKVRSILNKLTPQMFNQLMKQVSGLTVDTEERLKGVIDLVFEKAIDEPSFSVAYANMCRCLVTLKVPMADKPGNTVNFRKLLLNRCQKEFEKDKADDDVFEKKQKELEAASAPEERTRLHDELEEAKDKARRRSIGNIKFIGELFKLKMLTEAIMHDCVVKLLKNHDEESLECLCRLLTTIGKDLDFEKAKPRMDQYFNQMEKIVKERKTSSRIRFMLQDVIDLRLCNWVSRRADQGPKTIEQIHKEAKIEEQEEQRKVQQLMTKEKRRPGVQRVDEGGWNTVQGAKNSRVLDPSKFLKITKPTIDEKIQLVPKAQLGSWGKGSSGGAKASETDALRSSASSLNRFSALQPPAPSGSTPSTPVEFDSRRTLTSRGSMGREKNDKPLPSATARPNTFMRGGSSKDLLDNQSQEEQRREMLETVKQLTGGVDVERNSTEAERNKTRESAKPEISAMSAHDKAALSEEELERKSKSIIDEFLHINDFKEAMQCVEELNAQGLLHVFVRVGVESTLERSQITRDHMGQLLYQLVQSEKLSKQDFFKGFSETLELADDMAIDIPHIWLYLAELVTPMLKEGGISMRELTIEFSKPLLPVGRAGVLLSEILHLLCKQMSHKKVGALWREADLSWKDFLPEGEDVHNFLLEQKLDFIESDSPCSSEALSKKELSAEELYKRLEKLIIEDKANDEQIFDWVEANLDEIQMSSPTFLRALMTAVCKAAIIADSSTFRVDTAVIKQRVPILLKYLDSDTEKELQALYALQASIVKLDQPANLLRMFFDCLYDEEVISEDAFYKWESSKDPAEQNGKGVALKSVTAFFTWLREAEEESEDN
UniProt P23588, whole entry, looked up: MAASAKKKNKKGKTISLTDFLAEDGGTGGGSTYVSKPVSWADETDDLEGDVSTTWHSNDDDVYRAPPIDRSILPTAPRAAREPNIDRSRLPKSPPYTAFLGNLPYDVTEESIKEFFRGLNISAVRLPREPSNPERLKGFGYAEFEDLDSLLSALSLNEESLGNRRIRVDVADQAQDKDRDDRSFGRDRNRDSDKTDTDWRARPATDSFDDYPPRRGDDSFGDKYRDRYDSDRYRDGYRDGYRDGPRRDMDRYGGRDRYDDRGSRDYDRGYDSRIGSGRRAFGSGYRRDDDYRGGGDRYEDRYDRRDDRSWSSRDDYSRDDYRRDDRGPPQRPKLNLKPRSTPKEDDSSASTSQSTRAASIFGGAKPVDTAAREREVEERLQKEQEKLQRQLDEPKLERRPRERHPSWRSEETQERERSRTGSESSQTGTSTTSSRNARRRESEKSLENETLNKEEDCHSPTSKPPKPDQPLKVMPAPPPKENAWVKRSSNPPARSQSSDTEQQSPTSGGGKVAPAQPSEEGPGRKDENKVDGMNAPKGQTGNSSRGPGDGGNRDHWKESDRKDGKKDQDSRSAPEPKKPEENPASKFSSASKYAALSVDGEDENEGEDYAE

How the values were obtained:
Assay in all cases: log2 fold change, soluble protein after heating vs DMSO (PISA); higher = thermal stabilisation; K562 cells, 10 uM, 30 min; active = over 0.2 and 3.5 SD of the protein, either way, in both replicates (recomputed)
bafetinib = compound: Cc1ccc(NC(=O)c2ccc(CN3CC[C@H](N(C)C)C3)c(C(F)(F)F)c2)cc1Nc1nccc(-c2cncnc2)n1 [bafetinib]
How it was run: (§1)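 Thermal stability values are relative to control samples and come from duplicates. They are expressed as log2 fold changes. For measurement, K562 cells (2×10^6 cells/mL) received 10 μM compound for 30 min, and aliquots were heated for 3 min over 48°C-58°C, pooled, and extracted at 4°C in PBS with 0.5% NP-40. Soluble protein, the supernatant after 21,000xg for 90 min, was quantified by TMTpro 16plex LC-MS/MS with equalised channel sums.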

nilotinib = compound: Cc1cn(-c2cc(NC(=O)c3ccc(C)c(Nc4nccc(-c5cccnc5)n4)c3)cc(C(F)(F)F)c2)cn1 [nilotinib]
How it was run: as §1

[1] = compound: Cc1nc(Nc2n[nH]c3c2CN(C(=O)N[C@H](CN(C)C)c2ccccc2)C3(C)C)c2sccc2n1
How it was run: as §1

dasatinib = compound: Cc1nc(Nc2ncc(C(=O)Nc3c(C)cccc3Cl)s2)cc(N2CCN(CCO)CC2)n1 [dasatinib]
How it was run: as §1

[2] = compound: Cc1ncc(-c2ccnc(Nc3ccc(S(C)(=O)=O)cc3)n2)n1C(C)C
How it was run: as §1

[3] = compound: Cn1cc(-c2ccc3c(c2)CCN3C(=O)Cc2cccc(C(F)(F)F)c2)c2c(N)ncnc21
How it was run: as §1

[4] = compound: Cn1cc(-c2ccc3nnc(C(F)(F)c4ccc5ncccc5c4)n3n2)cn1
How it was run: as §1

tipifarnib = compound: Cn1cncc1[C@@](N)(c1ccc(Cl)cc1)c1ccc2c(c1)c(-c1cccc(Cl)c1)cc(=O)n2C [tipifarnib]
How it was run: as §1

mubritinib = compound: FC(F)(F)c1ccc(/C=C/c2nc(COc3ccc(CCCCn4ccnn4)cc3)co2)cc1 [mubritinib]
How it was run: as §1

[5] = compound: Cc1cccc(CC(=O)N2CCc3c2ccc(-c2cn(C)c4ncnc(N)c24)c3F)n1
How it was run: as §1

Measured: log2 fold change

ELOVL6 (UniProt Q9H5J4)
inactive: bafetinib -0.208 | nilotinib 0.04 | [1] -0.033 | dasatinib 0.089 | [2] -0.041 | [3] 0.049 | [4] 0.036 | tipifarnib -0.125 | mubritinib 0.103

EEF2 (UniProt P13639)
inactive: bafetinib 0.006 | [5] 0.003 | nilotinib 0.026 | [1] 0.007 | dasatinib 0.021 | [2] 0.003 | [3] 0.005 | [4] 0.019 | tipifarnib -0.002 | mubritinib 0.016

ENTPD5 (UniProt O75356)
inactive: bafetinib 0.105 | nilotinib 0.034 | [1] -0.065 | dasatinib -0.014 | [2] -0.013 | [3] -0.066 | [4] -0.017 | tipifarnib 0.105 | mubritinib 0.01

ELP6 (UniProt Q0PNE2)
inactive: bafetinib -0.008 | [5] 0.002 | nilotinib 0.003 | [1] 0.003 | dasatinib -0.037 | [2] 0.003 | [3] 0 | [4] 0.007 | tipifarnib -0.078 | mubritinib 0.029

ELMO1 (UniProt Q92556)
inactive: bafetinib 0.033 | nilotinib -0.038 | [1] 0.026 | dasatinib 0.03 | [2] -0.001 | [4] 0.06 | mubritinib -0.087

EPB41 isoform 4 (UniProt P11171)
inactive: bafetinib 0.284 | [5] -0.051 | [4] 0.043 | tipifarnib 0.133 | mubritinib -0.193

EIF4ENIF1 isoform 3 (UniProt Q9NRA8)
inactive: bafetinib -0.089 | [5] -0.21 | dasatinib -0.226 | [3] 0.026 | [4] -0.044 | tipifarnib -0.033 | mubritinib 0

ENSA isoform 3 (UniProt O43768)
inactive: bafetinib -0.073 | [5] -0.023 | nilotinib 0.053 | [1] -0.061 | dasatinib 0.052 | [2] -0.017 | [3] -0.03 | [4] -0.078 | tipifarnib 0.074 | mubritinib 0.028

ENO2 (UniProt U3KQQ1)
inactive: bafetinib -0.129 | [5] -1.11 | tipifarnib 0.304

EFCAB14 (UniProt O75071)
inactive: bafetinib -0.008 | [5] -0.056 | nilotinib 0.084 | [1] 0.011 | dasatinib 0.075 | [2] 0.003 | [3] -0.123 | [4] -0.048 | tipifarnib -0.062 | mubritinib 0.081

EML5 isoform 5 (UniProt Q05BV3)
inactive: bafetinib 0.069 | nilotinib -0.202 | [1] 0.058 | dasatinib -0.337 | [2] -0.143 | [3] 0.21 | [4] 0 | tipifarnib -0.101 | mubritinib -0.046

EIF4B (UniProt F8VP89)
inactive: bafetinib 0.028 | [5] -0.353 | nilotinib 0.024 | [1] -0.122 | [2] -0.138 | [3] 0.166 | [4] -0.125 | tipifarnib 0.172 | mubritinib -0.018

EEF1A1 (UniProt P68104)
inactive: bafetinib -0.114 | nilotinib 0.042 | [1] -0.113 | dasatinib -0.116 | [2] 0.001 | [3] 0.044 | [4] -0.063 | tipifarnib -0.057 | mubritinib -0.033

EHMT1 (UniProt Q9H9B1)
inactive: bafetinib -0.151 | [5] 0.239 | dasatinib -0.034 | [3] -0.077 | [4] 0.008 | tipifarnib 0.119 | mubritinib 0.034

EIF4G3 isoform 3 (UniProt O43432)
inactive: bafetinib -0.01 | nilotinib -0.043 | [1] -0.12 | dasatinib -0.006 | [2] 0.052 | [3] -0.073 | [4] 0.056 | tipifarnib 0.083 | mubritinib -0.005

EIF4B (UniProt P23588)
inactive: bafetinib 0.006 | [5] -0.031 | nilotinib 0.014 | [1] -0.002 | dasatinib 0.031 | [2] -0.02 | [3] -0.005 | [4] -0.007 | tipifarnib 0.043 | mubritinib 0.023
